# Experimental data taken from the supplement of paper PMC8728848.
# This is one part of the list.
# B1: Actd5 (Actinidia), P84527 (protein)
# chain: ISSCNGPCRDLNDCDGQLICIKGKCNDDPQVGTHICRGTTHSHQPGGCKPSGTLTCRGKSYPTYDCSPPVTSSTPAKLTNNDFSEGGDDGGPSECDESYHNNNERIVALSTGWYNGGSRCGKMIRITASNGKSVSAKVVDECDSRHGCDKEHAGQPPCRNNIVDGSNAVWSALGLDKNVGVVDITWSMA
# Columns and labels:
# Assay in all cases: glycan array binding signal (z-score within array); higher = stronger binding
# Settings in all cases: glycan notation: IUPAC condensed, linker removed
# [1] = molecular target: Neu5Ac(a2-6)Gal(b1-4)GlcNAc(b1-6)[Gal(b1-3)GlcNAc(b1-3)]Gal(b1-4)Glc
# Outline: (§1)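 Columns mapping to the same glycan were averaged after glycan names were converted to IUPAC-condensed notation. The data come from 3228 arrays in the Consortium for Functional Glycomics database, limited to those with an available protein sequence. Binding is reported as a within-array Z-score averaged across arrays of one protein sequence and across linkers.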
# [2] = molecular target: Neu5Ac(a2-6)Gal(b1-4)GlcNAc(b1-6)[Gal(b1-3)]GalNAc
# Outline: as §1
# [3] = molecular target: Neu5Ac(a2-6)Gal(b1-4)GlcNAc6S
# Outline: as §1
# Neu5Ac(a2-6)GalNAc = molecular target: Neu5Ac(a2-6)GalNAc
# Outline: as §1
# [4] = molecular target: Neu5Ac(a2-6)GalNAc(b1-4)GlcNAc
# Outline: as §1
# [5] = molecular target: Neu5Ac(a2-6)GalNAc(b1-4)GlcNAc6S
# Outline: as §1
# [6] = molecular target: Neu5Ac(a2-6)GlcNAc(b1-4)GlcNAc
# Outline: as §1
# [7] = molecular target: Neu5Ac(a2-6)GlcNAc(b1-4)GlcNAc(b1-4)GlcNAc
# Outline: as §1
# Neu5Ac(a2-8)Neu5Ac = molecular target: Neu5Ac(a2-8)Neu5Ac
# Outline: as §1
# [8] = molecular target: Neu5Ac(a2-8)Neu5Ac(a2-3)Gal(b1-3)GalNAc(b1-4)[Neu5Ac(a2-3)]Gal(b1-4)Glc
# Outline: as §1
# [9] = molecular target: Neu5Ac(a2-8)Neu5Ac(a2-3)Gal(b1-3)GalNAc(b1-4)[Neu5Ac(a2-8)Neu5Ac(a2-3)]Gal(b1-4)Glc
# Outline: as §1
# [10] = molecular target: Neu5Ac(a2-8)Neu5Ac(a2-3)Gal(b1-4)Glc
# Outline: as §1
# [11] = molecular target: Neu5Ac(a2-8)Neu5Ac(a2-3)Gal(b1-4)GlcNAc
# Outline: as §1
# [12] = molecular target: Neu5Ac(a2-8)Neu5Ac(a2-3)[Gal(b1-3)GalNAc(b1-4)]Gal(b1-4)Glc
# Outline: as §1
# [13] = molecular target: Neu5Ac(a2-8)Neu5Ac(a2-3)[GalNAc(b1-4)]Gal(b1-4)Glc
# Outline: as §1
# [14] = molecular target: Neu5Ac(a2-8)Neu5Ac(a2-8)Neu5Ac
# Outline: as §1
# [15] = molecular target: Neu5Ac(a2-8)Neu5Ac(a2-8)Neu5Ac(a2-3)Gal(b1-4)Glc
# Outline: as §1
# [16] = molecular target: Neu5Ac(a2-8)Neu5Ac(a2-8)Neu5Ac(a2-3)[Gal(b1-3)GalNAc(b1-4)]Gal(b1-4)Glc
# Outline: as §1
# [17] = molecular target: Neu5Ac(a2-8)Neu5Ac(a2-8)Neu5Ac(a2-3)[GalNAc(b1-4)]Gal(b1-4)Glc
# Outline: as §1
# [18] = molecular target: Neu5Ac(a2-8)Neu5Ac(a2-8)Neu5Ac(a2-8)Neu5Ac(a2-3)[GalNAc(b1-4)]Gal(b1-4)Glc
# Outline: as §1
# [19] = molecular target: Neu5Ac(a2-8)Neu5Gc(a2-3)Gal(b1-4)GlcNAc
# Outline: as §1
# [20] = molecular target: Neu5Ac(b2-6)Gal(b1-4)GlcNAc
# Outline: as §1
# Neu5Ac(b2-6)GalNAc = molecular target: Neu5Ac(b2-6)GalNAc
# Outline: as §1
# [21] = molecular target: Neu5Ac9Ac(a2-3)Gal(b1-3)GlcNAc
# Outline: as §1
# [22] = molecular target: Neu5Ac9Ac(a2-3)Gal(b1-4)GlcNAc
# Outline: as §1
# [23] = molecular target: Neu5Ac9Ac(a2-6)Gal(b1-4)GlcNAc
# Outline: as §1
# [24] = molecular target: Neu5Gc(a2-3)Gal(b1-3)GlcNAc
# Outline: as §1
# [25] = molecular target: Neu5Gc(a2-3)Gal(b1-3)[Fuc(a1-4)]GlcNAc
# Outline: as §1
# Neu5Gc(a2-3)Gal(b1-4)Glc = molecular target: Neu5Gc(a2-3)Gal(b1-4)Glc
# Outline: as §1
# [26] = molecular target: Neu5Gc(a2-3)Gal(b1-4)GlcNAc
# Outline: as §1
# [27] = molecular target: Neu5Gc(a2-3)Gal(b1-4)GlcNAc(b1-3)Gal(b1-4)GlcNAc(b1-2)Man(a1-3)[Neu5Gc(a2-3)Gal(b1-4)GlcNAc(b1-3)Gal(b1-4)GlcNAc(b1-2)Man(a1-6)]Man(b1-4)GlcNAc(b1-4)GlcNAc
# Outline: as §1
# [28] = molecular target: Neu5Gc(a2-3)Gal(b1-4)[Fuc(a1-3)]GlcNAc
# Outline: as §1
# [29] = molecular target: Neu5Gc(a2-6)Gal(b1-4)GlcNAc
# Outline: as §1
# Neu5Gc(a2-6)GalNAc = molecular target: Neu5Gc(a2-6)GalNAc
# Outline: as §1
# [30] = molecular target: Neu5Gc(a2-8)Neu5Ac(a2-3)Gal(b1-4)GlcNAc
# Outline: as §1
# [31] = molecular target: Neu5Gc(a2-8)Neu5Gc(a2-3)Gal(b1-4)GlcNAc
# Outline: as §1
# [32] = molecular target: Neu5Gc(a2-8)Neu5Gc(a2-3)Gal(b1-4)GlcNAc(b1-3)Gal(b1-4)GlcNAc
# Outline: as §1
# [33] = molecular target: Neu5Gc(a2-8)Neu5Gc(a2-6)Gal(b1-4)GlcNAc
# Outline: as §1
# [34] = molecular target: Neu5Gc(b2-6)Gal(b1-4)GlcNAc
# Outline: as §1
binder,measurement,setting,value
B1,glycan array binding signal (z-score),[1],-0.403
same,glycan array binding signal (z-score),[2],-0.362
same,glycan array binding signal (z-score),[3],-0.979
same,glycan array binding signal (z-score),Neu5Ac(a2-6)GalNAc,-1.14
same,glycan array binding signal (z-score),[4],-1.33
same,glycan array binding signal (z-score),[5],-1.17
same,glycan array binding signal (z-score),[6],-1.14
same,glycan array binding signal (z-score),[7],-1.21
same,glycan array binding signal (z-score),Neu5Ac(a2-8)Neu5Ac,-0.827
same,glycan array binding signal (z-score),[8],-0.272
same,glycan array binding signal (z-score),[9],0.006
same,glycan array binding signal (z-score),[10],-0.316
same,glycan array binding signal (z-score),[11],-1.25
same,glycan array binding signal (z-score),[12],-0.214
same,glycan array binding signal (z-score),[13],-0.363
same,glycan array binding signal (z-score),[14],0.095
same,glycan array binding signal (z-score),[15],-0.151
same,glycan array binding signal (z-score),[16],1.71
same,glycan array binding signal (z-score),[17],-0.179
same,glycan array binding signal (z-score),[18],-0.686
same,glycan array binding signal (z-score),[19],-1.45
same,glycan array binding signal (z-score),[20],-0.819
same,glycan array binding signal (z-score),Neu5Ac(b2-6)GalNAc,0.032
same,glycan array binding signal (z-score),[21],-1.57
same,glycan array binding signal (z-score),[22],2.81
same,glycan array binding signal (z-score),[23],-0.376
same,glycan array binding signal (z-score),[24],-0.413
same,glycan array binding signal (z-score),[25],-0.017
same,glycan array binding signal (z-score),Neu5Gc(a2-3)Gal(b1-4)Glc,0.046
same,glycan array binding signal (z-score),[26],-0.521
same,glycan array binding signal (z-score),[27],0.689
same,glycan array binding signal (z-score),[28],0.189
same,glycan array binding signal (z-score),[29],-0.297
same,glycan array binding signal (z-score),Neu5Gc(a2-6)GalNAc,-0.357
same,glycan array binding signal (z-score),[30],0.149
same,glycan array binding signal (z-score),[31],-0.998
same,glycan array binding signal (z-score),[32],-1.4
same,glycan array binding signal (z-score),[33],-0.989
same,glycan array binding signal (z-score),[34],-0.531

# 3 records picked at random from the list so far:
binder,measurement,setting,value
B1,glycan array binding signal (z-score),Neu5Gc(a2-3)Gal(b1-4)Glc,0.046
same,glycan array binding signal (z-score),[31],-0.998
same,glycan array binding signal (z-score),[33],-0.989
